The exact form of at least one protein or probe is not confirmed. Where cells or extracts were used, other partners may take part. For some assays here: Weaker means in comparison with the reference protein, sequence or condition of that experiment. Protein sequences can lack the tags named with them. For some assays here: Whether high values mean tight binding is not given here for every scale.
Legend:
[1] = molecular target: T1, C/EBPδ (UniProt Q03484); experiment: streptavidin-agarose pull-down, western blot (nuclear extract); details: pull-down: 150 μg nuclear extract, 4 μg dsDNA, 500 μl PBS, 1 mM EDTA, 1 mM DTT, protease inhibitors, 2 h at room temperature, protein in an extract
T1 sequence (looked up, limits assumed): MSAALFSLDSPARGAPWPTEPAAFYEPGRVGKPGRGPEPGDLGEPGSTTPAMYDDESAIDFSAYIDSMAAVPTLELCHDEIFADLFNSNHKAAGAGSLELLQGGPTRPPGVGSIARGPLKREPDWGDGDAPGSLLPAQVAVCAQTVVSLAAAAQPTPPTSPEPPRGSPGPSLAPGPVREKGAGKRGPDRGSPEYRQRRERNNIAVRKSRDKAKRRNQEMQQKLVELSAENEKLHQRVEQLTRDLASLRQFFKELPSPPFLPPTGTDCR

[2] = molecular target: T1, C/EBPδ; experiment: EMSA with anti-C/EBPδ (nuclear extract); details: EMSA: 5 μg nuclear extract, antibody 30 min at room temperature before probe, 5% polyacrylamide gel, buffer not given, protein in an extract, label: 32P (T4 PNK)

Sequence: AGTTGAGGGGACTTTCCCAGGC (double strand) [κB oligonucleotide]
- binding result ([1]; extract of IL-1β-treated cells, binding increased vs untreated): binds
- binding result ([1]; extract of cells treated with IL-1β + fibril-enriched Aβ, IL-1β-induced binding completely blocked): binds more weakly
- binding result ([1]; extract of cells treated with IL-1β + oligomer-enriched Aβ, decreased to same extent as with fibrils): binds more weakly

Sequence: TGCAGATTGCGCAATCTGCA (double strand) [C/EBP consensus oligonucleotide]
- binding result ([2]; extract of IL-1β-treated cells (10 ng/ml, 3 h)): binds
- binding signal (% decrease vs IL-1β alone) ([2]; extract of cells treated with IL-1β + fibril-enriched Aβ (10 μM), reflects lower C/EBPδ protein level): 89
